Earlier results on one compound are cited in US20040143023A1, “Materials and methods for synthesizing stilbenes” (priority 2000, published 2004).

Each structure is given as a SMILES string.

In this data set the test system is P388 murine leukaemia cell line. To be noted: read-out: IC50, inhibition of cell growth.

`COc1ccc(/C=C\c2cc(OC)c(OC)c(OC)c2)cc1O` [cis-combretastatin A-4, Z-1-(3′-Hydroxy-4′-methoxyphenyl)-2-(3″,4″,5″-trimethoxyphenyl)ethene]: the half-maximal inhibitory concentration (IC50) was 2.6 nM.

For orientation: IC50 means the concentration at which inhibition is half-maximal.
